Results deposited as PubChem BioAssay AID1224826 (NIAID, 2016)
Here is a random part of about 17,000 deposited reagents. Of all reagents, about 1,110 (6.6%) are marked active. 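Active means lowered or raised reporter signal; replicate intensities are raw and not normalised per plate.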 The numbers tell different reagents against one gene apart. Further read-outs or replicates are left out here.

Screen: 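Regulators of Tlr4 signalling leading to Tnf-alpha expression in macrophages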 (primary screen)
System: RAW264.7 G9 macrophages from mouse bearing reporters for p65 (GFP) and the Tnf promoter (mCherry)
Reagents: siRNA pool against mouse genes, 100 nM
Time to read-out: 16 h of LPS stimulation, after 2 days of siRNA transfection
Conditions: bacterial lipopolysaccharide (Salmonella minnesota R595), 10 ng/ml
Read-out: 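Nuclear mCherry signal of the Tnf promoter reporter measured by imaging after background removal, scaled to each plate median and turned into robust z-scores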
Scale: Tnf reporter robust z-score: higher = stronger Tnf promoter reporter signal after LPS
Active means: 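Called active when robust z-score is at most -1.3, matching the median of the Tlr4 knock-down control, or over 3; control wells and wells with under 50 cells never active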
Calls: active = Tnf reporter clearly lowered or raised; inactive = no clear change in Tnf reporter

target gene | reagent | Tnf reporter robust z-score | fewer than 50 cells in well | outcome
Tcerg1l (GeneID 70571) | 1 | 0.55 | enough cells in well | inactive
Vmn1r41 (GeneID 113857) | 1 | -0.41 | enough cells in well | inactive
Drc4 (GeneID 104346) | 1 | 0.53 | enough cells in well | inactive
Vav3 (GeneID 57257) | 1 | -0.07 | enough cells in well | inactive
Mzb1 (GeneID 69816) | 1 | – | fewer than 50 cells per well; well left out of calls | inactive
Zfp592 (GeneID 233410) | 1 | 0.43 | enough cells in well | inactive
Fbxo36 (GeneID 66153) | 1 | -0.71 | enough cells in well | inactive
Ropn1l (GeneID 252967) | 1 | – | fewer than 50 cells per well; well left out of calls | inactive
Tex56 (GeneID 66761) | 1 | 0.35 | enough cells in well | inactive
Colgalt1 (GeneID 234407) | 1 | 2.57 | enough cells in well | inactive
Osgepl1 (GeneID 72085) | 1 | – | fewer than 50 cells per well; well left out of calls | inactive
Trmt61a (GeneID 328162) | 1 | 0.03 | enough cells in well | inactive
Slc6a2 (GeneID 20538) | 1 | 0.05 | enough cells in well | inactive
Lcn3 (GeneID 16820) | 1 | -0.96 | enough cells in well | inactive
Senp2 (GeneID 75826) | 1 | – | fewer than 50 cells per well; well left out of calls | inactive
Adgrl2 (GeneID 99633) | 1 | 0.83 | enough cells in well | inactive
Malt1 (GeneID 240354) | 1 | -0.45 | enough cells in well | inactive
Mdm4 (GeneID 17248) | 1 | -0.74 | enough cells in well | inactive
Cntn1 (GeneID 12805) | 1 | -0.17 | enough cells in well | inactive
Rell1 (GeneID 100532) | 1 | 0.26 | enough cells in well | inactive
Urod (GeneID 22275) | 1 | 0.2 | enough cells in well | inactive
Nectin2 (GeneID 19294) | 1 | 0.95 | enough cells in well | inactive
Samd11 (GeneID 231004) | 1 | -0.66 | enough cells in well | inactive
Dnaaf11 (GeneID 54562) | 1 | 1.34 | enough cells in well | inactive
Usp47 (GeneID 74996) | 1 | 0.02 | enough cells in well | inactive
Usp47 (GeneID 74996) | 2 | -0.41 | enough cells in well | inactive
Pdcl3 (GeneID 68833) | 1 | -1.29 | enough cells in well | inactive
Hace1 (GeneID 209462) | 1 | -0.37 | enough cells in well | inactive
Ccn2 (GeneID 14219) | 1 | -0.47 | enough cells in well | inactive
Tradd (GeneID 71609) | 1 | 0.69 | enough cells in well | inactive
Sele (GeneID 20339) | 1 | -0.04 | enough cells in well | inactive
4930474M22Rik (GeneID 74917) | 1 | -0.27 | enough cells in well | inactive
Hdlbp (GeneID 110611) | 1 | 0.15 | enough cells in well | inactive
Cnot11 (GeneID 52846) | 1 | 0.39 | enough cells in well | inactive
Shroom3 (GeneID 27428) | 1 | -0.78 | enough cells in well | inactive
Ank (GeneID 11732) | 1 | – | fewer than 50 cells per well; well left out of calls | inactive
Emb (GeneID 13723) | 1 | 0.72 | enough cells in well | inactive
Trap1a (GeneID 22037) | 1 | – | fewer than 50 cells per well; well left out of calls | inactive
Sdr9c7 (GeneID 70061) | 1 | 0.1 | enough cells in well | inactive
Prkd1 (GeneID 18760) | 1 | 0.22 | enough cells in well | inactive
Ngrn (GeneID 83485) | 1 | -1.15 | enough cells in well | inactive
Svep1 (GeneID 64817) | 1 | -0.44 | enough cells in well | inactive
Ang2 (GeneID 11731) | 1 | 0.58 | enough cells in well | inactive
Slc25a5 (GeneID 11740) | 1 | 0.38 | enough cells in well | inactive
Prtg (GeneID 235472) | 1 | – | fewer than 50 cells per well; well left out of calls | inactive
Cst7 (GeneID 13011) | 1 | -0.6 | enough cells in well | inactive
Vmn1r48 (GeneID 113845) | 1 | – | fewer than 50 cells per well; well left out of calls | inactive
Emc2 (GeneID 66736) | 1 | 1.89 | enough cells in well | inactive
Spmap2 (GeneID 21830) | 1 | -0.26 | enough cells in well | inactive
Kcnip3 (GeneID 56461) | 1 | 0.24 | enough cells in well | inactive
S100a9 (GeneID 20202) | 1 | 0.2 | enough cells in well | inactive
Mpzl2 (GeneID 14012) | 1 | -1.28 | enough cells in well | inactive
Dhx9 (GeneID 13211) | 1 | 0.28 | enough cells in well | inactive
4933409K07Rik (GeneID 108816) | 1 | – | fewer than 50 cells per well; well left out of calls | inactive
9130401M01Rik (GeneID 75758) | 1 | -0.85 | enough cells in well | inactive
Peli2 (GeneID 93834) | 1 | 0.08 | enough cells in well | inactive
Clta (GeneID 12757) | 1 | -1.43 | enough cells in well | active
2310033P09Rik (GeneID 67862) | 1 | – | fewer than 50 cells per well; well left out of calls | inactive

Part of the list above in another layout.
target gene	reagent	Tnf reporter robust z-score	fewer than 50 cells in well	outcome
Sdr9c7 (GeneID 70061)	1	0.1	enough cells in well	inactive
Prkd1 (GeneID 18760)	1	0.22	enough cells in well	inactive
Ngrn (GeneID 83485)	1	-1.15	enough cells in well	inactive
Svep1 (GeneID 64817)	1	-0.44	enough cells in well	inactive
